This is one part of the list.
Legend:
Assay in all cases: log2 fold change, soluble protein after heating vs DMSO (PISA); higher = thermal stabilisation; K562 cells, 10 uM, 30 min; active = over 0.2 and 3.5 SD of the protein, either way, in both replicates (recomputed)
[1] = compound: CC[C@@H]1C(=O)N(C)c2cnc(Nc3ccc(C(=O)NC4CCN(C)CC4)cc3OC)nc2N1C1CCCC1
Summary of the method: (§1)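 Quantification of soluble protein used TMTpro 16plex LC-MS/MS, with channel sums equalised. Samples were the supernatant after 21,000xg for 90 min of pooled aliquots from K562 cells (2×10^6 cells/mL) treated with 10 μM compound for 30 min, heated for 3 min over 48°C-58°C, and extracted in PBS with 0.5% NP-40 at 4°C. Values, from duplicates, describe thermal stability against control samples on a log2 fold-change scale.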

The chains behind the UniProt entries cited, without tags or fusion partners. Where a name states a change or a piece, a line headed by the entry shows the natural chain unless it says otherwise.
UniProt Q562R1, whole entry, looked up: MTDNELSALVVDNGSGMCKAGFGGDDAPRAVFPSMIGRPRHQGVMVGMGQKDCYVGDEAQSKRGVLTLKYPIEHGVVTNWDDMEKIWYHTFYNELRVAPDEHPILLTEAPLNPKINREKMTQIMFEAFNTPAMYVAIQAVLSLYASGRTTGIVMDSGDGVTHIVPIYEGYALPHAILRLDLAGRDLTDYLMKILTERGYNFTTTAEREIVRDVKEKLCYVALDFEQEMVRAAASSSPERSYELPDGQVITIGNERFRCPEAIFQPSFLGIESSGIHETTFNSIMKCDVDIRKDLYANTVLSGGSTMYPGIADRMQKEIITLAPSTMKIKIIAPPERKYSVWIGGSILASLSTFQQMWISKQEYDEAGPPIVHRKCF
UniProt P42025, whole entry, looked up: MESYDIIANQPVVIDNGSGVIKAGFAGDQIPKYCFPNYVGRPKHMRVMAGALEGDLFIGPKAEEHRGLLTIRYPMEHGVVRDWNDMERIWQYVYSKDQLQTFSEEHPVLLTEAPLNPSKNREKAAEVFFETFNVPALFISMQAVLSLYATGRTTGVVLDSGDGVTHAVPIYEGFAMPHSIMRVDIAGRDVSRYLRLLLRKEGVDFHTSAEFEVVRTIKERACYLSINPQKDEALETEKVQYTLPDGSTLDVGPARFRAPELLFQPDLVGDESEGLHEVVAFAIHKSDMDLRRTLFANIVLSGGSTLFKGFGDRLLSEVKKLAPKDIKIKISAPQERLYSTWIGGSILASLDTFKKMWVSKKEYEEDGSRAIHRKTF
UniProt Q9BWD1: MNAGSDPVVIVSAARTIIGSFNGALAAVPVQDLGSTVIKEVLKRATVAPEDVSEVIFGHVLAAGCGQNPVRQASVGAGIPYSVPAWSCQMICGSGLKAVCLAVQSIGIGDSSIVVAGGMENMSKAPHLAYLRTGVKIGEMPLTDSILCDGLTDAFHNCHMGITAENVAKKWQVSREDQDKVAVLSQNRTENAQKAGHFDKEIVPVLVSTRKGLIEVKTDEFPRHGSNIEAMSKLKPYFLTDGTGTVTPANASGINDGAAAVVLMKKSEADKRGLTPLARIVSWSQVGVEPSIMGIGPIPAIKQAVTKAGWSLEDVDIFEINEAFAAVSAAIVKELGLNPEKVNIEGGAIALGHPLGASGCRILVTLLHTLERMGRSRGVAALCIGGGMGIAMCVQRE
UniProt O15440: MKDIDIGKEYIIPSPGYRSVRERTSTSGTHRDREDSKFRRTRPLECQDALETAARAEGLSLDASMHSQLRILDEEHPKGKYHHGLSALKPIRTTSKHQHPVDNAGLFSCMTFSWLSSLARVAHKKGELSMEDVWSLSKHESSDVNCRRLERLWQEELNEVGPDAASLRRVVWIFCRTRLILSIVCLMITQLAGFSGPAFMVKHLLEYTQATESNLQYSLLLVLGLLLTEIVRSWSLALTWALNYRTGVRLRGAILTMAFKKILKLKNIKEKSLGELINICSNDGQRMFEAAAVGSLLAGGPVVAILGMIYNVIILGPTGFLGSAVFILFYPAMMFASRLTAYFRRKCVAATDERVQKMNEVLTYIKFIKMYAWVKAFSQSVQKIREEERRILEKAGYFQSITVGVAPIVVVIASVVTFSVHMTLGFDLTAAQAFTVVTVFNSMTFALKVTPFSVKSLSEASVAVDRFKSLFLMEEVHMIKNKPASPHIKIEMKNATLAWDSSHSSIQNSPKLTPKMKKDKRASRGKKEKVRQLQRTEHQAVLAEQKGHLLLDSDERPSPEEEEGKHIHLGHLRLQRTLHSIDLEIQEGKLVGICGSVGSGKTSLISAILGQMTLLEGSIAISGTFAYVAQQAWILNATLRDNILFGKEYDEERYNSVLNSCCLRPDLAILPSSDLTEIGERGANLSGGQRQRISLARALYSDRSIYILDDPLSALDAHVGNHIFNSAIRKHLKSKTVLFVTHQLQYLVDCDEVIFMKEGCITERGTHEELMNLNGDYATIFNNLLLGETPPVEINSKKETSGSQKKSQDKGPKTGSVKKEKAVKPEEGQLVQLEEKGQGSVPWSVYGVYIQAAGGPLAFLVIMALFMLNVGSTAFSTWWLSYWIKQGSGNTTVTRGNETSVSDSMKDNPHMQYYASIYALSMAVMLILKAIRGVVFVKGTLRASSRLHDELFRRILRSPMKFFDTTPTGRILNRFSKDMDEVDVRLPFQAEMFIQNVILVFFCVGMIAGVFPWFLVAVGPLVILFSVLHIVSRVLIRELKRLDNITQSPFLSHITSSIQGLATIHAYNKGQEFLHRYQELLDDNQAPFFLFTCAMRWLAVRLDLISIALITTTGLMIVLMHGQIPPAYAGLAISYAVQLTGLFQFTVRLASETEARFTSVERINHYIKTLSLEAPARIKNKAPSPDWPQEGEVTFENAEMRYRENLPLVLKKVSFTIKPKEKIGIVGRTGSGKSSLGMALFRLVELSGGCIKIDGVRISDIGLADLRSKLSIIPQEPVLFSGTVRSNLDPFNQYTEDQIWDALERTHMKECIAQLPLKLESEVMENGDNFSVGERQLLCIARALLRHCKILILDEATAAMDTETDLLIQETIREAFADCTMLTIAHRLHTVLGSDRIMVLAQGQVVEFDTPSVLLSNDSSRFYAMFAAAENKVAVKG
UniProt Q76LX8: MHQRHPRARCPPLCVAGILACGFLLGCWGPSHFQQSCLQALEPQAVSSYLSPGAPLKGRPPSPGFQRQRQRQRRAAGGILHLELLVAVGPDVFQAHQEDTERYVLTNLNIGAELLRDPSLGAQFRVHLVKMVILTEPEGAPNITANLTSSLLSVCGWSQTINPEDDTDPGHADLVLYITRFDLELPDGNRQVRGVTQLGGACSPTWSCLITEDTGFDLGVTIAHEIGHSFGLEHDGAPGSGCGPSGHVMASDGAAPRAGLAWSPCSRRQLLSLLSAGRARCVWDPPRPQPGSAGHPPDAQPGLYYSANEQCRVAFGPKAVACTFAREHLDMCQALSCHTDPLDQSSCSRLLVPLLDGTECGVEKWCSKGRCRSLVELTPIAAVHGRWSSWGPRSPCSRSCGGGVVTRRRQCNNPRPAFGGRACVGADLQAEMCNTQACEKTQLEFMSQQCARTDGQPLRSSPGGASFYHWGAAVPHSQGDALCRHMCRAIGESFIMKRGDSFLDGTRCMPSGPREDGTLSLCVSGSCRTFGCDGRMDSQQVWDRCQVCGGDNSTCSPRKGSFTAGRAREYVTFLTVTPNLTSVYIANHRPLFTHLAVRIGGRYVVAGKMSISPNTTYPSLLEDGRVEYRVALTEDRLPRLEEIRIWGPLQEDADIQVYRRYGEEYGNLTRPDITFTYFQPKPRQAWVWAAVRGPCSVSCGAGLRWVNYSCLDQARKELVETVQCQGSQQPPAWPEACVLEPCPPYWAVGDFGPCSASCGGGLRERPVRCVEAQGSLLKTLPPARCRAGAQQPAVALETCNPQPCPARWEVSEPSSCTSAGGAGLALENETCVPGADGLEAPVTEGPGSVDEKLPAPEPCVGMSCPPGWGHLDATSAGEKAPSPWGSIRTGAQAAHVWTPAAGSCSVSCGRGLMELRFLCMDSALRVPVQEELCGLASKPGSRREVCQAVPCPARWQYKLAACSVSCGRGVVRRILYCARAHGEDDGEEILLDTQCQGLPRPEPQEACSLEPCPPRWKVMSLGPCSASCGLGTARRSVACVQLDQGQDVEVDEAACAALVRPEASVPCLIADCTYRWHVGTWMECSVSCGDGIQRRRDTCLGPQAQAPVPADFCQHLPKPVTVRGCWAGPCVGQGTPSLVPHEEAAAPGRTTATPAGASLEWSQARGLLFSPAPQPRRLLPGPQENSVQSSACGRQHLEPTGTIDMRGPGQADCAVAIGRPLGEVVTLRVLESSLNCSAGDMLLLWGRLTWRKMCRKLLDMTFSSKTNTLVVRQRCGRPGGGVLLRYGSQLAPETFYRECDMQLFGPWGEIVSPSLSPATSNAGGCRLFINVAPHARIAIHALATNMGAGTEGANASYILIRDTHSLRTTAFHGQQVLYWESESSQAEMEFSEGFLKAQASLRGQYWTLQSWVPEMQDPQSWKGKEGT
UniProt P14621: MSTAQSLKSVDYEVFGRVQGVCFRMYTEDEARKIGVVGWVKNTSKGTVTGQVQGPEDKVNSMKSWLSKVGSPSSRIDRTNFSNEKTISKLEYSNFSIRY
UniProt Q9BTE6: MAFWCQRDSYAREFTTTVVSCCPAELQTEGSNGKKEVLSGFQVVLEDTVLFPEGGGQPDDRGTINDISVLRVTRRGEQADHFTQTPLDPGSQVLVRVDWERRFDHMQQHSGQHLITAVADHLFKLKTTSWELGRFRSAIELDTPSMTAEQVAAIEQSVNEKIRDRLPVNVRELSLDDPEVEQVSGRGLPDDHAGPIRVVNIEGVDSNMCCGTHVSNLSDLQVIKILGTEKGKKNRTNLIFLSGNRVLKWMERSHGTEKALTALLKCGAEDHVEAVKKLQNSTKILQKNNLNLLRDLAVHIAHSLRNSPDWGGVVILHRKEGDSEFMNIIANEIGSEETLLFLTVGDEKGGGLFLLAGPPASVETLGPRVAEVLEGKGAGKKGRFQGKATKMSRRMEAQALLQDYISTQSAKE
UniProt Q9NP58: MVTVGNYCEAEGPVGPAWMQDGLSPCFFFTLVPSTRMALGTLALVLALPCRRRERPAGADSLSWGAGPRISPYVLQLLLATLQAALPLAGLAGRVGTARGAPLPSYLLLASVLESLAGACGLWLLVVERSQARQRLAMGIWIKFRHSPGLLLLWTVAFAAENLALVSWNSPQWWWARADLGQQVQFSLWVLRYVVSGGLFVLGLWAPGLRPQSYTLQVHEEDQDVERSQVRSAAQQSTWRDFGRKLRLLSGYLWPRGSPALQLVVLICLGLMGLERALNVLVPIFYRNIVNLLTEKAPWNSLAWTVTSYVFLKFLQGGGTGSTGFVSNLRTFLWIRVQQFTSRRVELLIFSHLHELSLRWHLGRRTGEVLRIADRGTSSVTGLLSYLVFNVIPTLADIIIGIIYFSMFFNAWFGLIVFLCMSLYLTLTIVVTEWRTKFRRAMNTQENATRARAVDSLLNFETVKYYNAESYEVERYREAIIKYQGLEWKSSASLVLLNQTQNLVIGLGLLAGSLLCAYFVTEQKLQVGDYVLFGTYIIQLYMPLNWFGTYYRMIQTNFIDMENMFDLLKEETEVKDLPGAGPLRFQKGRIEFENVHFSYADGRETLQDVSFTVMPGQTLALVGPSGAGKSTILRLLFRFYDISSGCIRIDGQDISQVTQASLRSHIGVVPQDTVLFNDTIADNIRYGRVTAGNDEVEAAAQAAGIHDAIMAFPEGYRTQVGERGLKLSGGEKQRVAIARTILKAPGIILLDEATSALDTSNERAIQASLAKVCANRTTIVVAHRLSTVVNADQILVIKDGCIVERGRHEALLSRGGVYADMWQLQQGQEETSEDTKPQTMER
UniProt P00519, whole entry, looked up: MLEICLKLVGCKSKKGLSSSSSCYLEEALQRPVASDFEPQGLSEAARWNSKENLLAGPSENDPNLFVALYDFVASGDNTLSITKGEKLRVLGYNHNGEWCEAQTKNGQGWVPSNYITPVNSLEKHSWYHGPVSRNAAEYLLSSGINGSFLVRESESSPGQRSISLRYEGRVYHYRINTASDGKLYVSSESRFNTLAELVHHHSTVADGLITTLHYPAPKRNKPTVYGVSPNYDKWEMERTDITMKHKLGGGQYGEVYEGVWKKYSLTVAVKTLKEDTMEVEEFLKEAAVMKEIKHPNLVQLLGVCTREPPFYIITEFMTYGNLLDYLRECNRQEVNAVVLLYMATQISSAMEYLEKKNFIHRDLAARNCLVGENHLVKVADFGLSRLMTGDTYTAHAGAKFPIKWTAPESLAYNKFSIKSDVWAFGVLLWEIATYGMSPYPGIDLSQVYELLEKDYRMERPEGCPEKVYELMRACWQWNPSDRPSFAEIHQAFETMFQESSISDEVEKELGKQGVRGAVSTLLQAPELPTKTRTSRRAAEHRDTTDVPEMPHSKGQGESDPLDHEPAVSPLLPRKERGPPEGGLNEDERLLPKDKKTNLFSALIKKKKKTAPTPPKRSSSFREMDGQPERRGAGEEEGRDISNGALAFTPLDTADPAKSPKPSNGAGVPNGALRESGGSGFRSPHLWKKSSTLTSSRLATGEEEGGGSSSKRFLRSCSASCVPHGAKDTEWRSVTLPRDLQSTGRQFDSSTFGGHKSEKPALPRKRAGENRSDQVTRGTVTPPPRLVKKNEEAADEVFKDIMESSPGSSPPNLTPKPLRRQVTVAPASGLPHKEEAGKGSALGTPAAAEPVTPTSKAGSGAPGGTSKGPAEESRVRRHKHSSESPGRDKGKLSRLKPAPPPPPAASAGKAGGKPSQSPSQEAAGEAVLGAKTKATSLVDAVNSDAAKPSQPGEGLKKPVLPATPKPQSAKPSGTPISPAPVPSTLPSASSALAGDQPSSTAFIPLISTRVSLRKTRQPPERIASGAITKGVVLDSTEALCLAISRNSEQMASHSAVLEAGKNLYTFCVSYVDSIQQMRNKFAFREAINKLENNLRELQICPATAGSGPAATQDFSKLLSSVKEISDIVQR

volasertib = compound: CC[C@@H]1C(=O)N(C)c2cnc(Nc3ccc(C(=O)N[C@H]4CC[C@H](N5CCN(CC6CC6)CC5)CC4)cc3OC)nc2N1C(C)C [volasertib]
Summary of the method: as §1

[2] = compound: CC[C@H](C)N1C=C(C2=C(C=C(C=C21)C3=CN=C(C=C3)N4CCNCC4)C(=O)NCC5=C(C=C(NC5=O)C)C)C
Summary of the method: as §1

epoxomicin = compound: CC[C@H](C)[C@@H](C(=O)N[C@@H]([C@@H](C)O)C(=O)N[C@@H](CC(C)C)C(=O)[C@]1(CO1)C)NC(=O)[C@H]([C@@H](C)CC)N(C)C(=O)C [epoxomicin]
Summary of the method: as §1

[3] = compound: CCn1c(C(=O)N(C2CC2)C2CC2)cc2c3c(ncn3C)c(Nc3cc(C)n(C)n3)nc21
Summary of the method: as §1

[4] = compound: CCn1cc(-c2ccnc3[nH]c(-c4cccc(CN(C)C)c4)cc23)c(-c2ccc(NC(=O)N(C)C)cc2)n1
Summary of the method: as §1

[5] = compound: CN(C)CC(=O)Nc1ccc2[nH]c(=O)c3ccccc3c2c1
Summary of the method: as §1

rosiglitazone = compound: CN(CCOC1=CC=C(C=C1)C[C@H]2C(=O)NC(=O)S2)C3=CC=CC=N3 (racemic) [rosiglitazone]
Summary of the method: as §1

[6] = compound: CN1C2=C(C3=C1C(=O)N(N=C3)CC4=CC(=CC=C4)N)SC(=C2)S(=O)C
Summary of the method: as §1

[7] = compound: CN1CCC(CNc2ccc3ncc(-c4cccc(OC(F)(F)F)c4)n3n2)CC1
Summary of the method: as §1

Measured: log2 fold change

ACADSB (UniProt P45954)
inactive: [1] 0.04 | volasertib -0.013 | [2] 0.029 | epoxomicin 0.02 | [3] 0.015 | [4] -0.103 | [5] 0.027 | rosiglitazone 0.078 | [6] -0.101 | [7] -0.071

ADAM9 (UniProt Q13443)
inactive: [1] -0.009 | volasertib -0.025 | [2] -0.06 | epoxomicin 0.017 | [3] 0.012 | [4] 0.01 | [5] -0.02 | rosiglitazone -0.047 | [6] -0.031 | [7] -0.076

ACADM isoform 2 (UniProt P11310)
inactive: [1] -0.045 | volasertib -0.03 | [2] -0.015 | epoxomicin 0.015 | [4] -0.042 | [5] -0.024 | [6] -0.078 | [7] -0.011

ACTB, A0A2R8Y793
inactive: [1] -0.032 | volasertib -0.045 | [2] -0.008 | epoxomicin 0.042 | [3] -0.014 | [4] -0.015 | [5] -0.006 | rosiglitazone -0.02 | [6] -0.067 | [7] 0.077

2 neighbouring entries already listed, for reference:
ACADM isoform 2 (UniProt P11310)
inactive: [1] -0.045 | volasertib -0.03 | [2] -0.015 | epoxomicin 0.015 | [4] -0.042 | [5] -0.024 | [6] -0.078 | [7] -0.011

ACTB, A0A2R8Y793
inactive: [1] -0.032 | volasertib -0.045 | [2] -0.008 | epoxomicin 0.042 | [3] -0.014 | [4] -0.015 | [5] -0.006 | rosiglitazone -0.02 | [6] -0.067 | [7] 0.077

Later entries

ACO1 (UniProt P21399)
inactive: [1] 0.023 | volasertib 0.023 | [2] 0.018 | epoxomicin 0.031 | [3] 0.038 | [4] -0.061 | [5] -0.011 | rosiglitazone -0.017 | [6] -0.077 | [7] -0.009

ACSL3 (UniProt O95573)
active: volasertib -0.23 | rosiglitazone 0.642
inactive: [1] -0.062 | [2] 0.022 | epoxomicin 0.048 | [4] -0.042 | [5] 0.024 | [6] -0.036 | [7] -0.1

ABCD4 (UniProt O14678)
inactive: [1] 0.033 | volasertib 0.102 | [2] -0.224 | epoxomicin 0.205 | [3] 0.133 | [5] 0.098 | rosiglitazone -0.099

ACLY isoform 2 (UniProt P53396)
inactive: [1] 0.018 | volasertib -0.128 | [2] -0.018 | epoxomicin -0.076 | [3] -0.017 | [5] -0.019 | rosiglitazone 0.059

ACLY (UniProt P53396)
inactive: [1] -0.023 | volasertib -0.124 | [2] 0.02 | epoxomicin 0.001 | [3] 0.021 | [4] 0.006 | [5] -0.003 | rosiglitazone -0.057 | [6] -0.064 | [7] -0.116

ACTBL2 (UniProt Q562R1)
inactive: [1] -0.121 | volasertib 0.153 | [2] -0.133 | epoxomicin -0.1 | [4] 0.162 | [5] -0.3 | [6] 0.011 | [7] 0.065

ACTR3 (UniProt P61158)
inactive: [1] 0.022 | volasertib -0.033 | [2] -0.029 | epoxomicin 0.05 | [3] 0.01 | [4] 0.001 | [5] -0.02 | rosiglitazone -0.052 | [6] -0.029 | [7] 0.083

ABLIM1 (UniProt O14639)
inactive: [1] 0 | volasertib -0.079 | [2] -0.009 | epoxomicin 0.012 | [3] -0.098 | [4] 0.048 | [5] 0.144 | rosiglitazone -0.057 | [6] 0.449 | [7] -0.108

ACTR1B (UniProt P42025)
inactive: [1] 0.081 | volasertib 0.048 | [2] 0.01 | epoxomicin -0.008 | [5] 0.021 | [6] -0.089 | [7] 0.306
active: [4] -0.581

ACAT2 (UniProt Q9BWD1)
inactive: [1] -0.019 | volasertib 0.02 | [2] -0.031 | epoxomicin 0.003 | [3] -0.035 | [4] -0.003 | [5] -0.032 | rosiglitazone 0.008 | [6] -0.041 | [7] 0.006

ACTR2 (UniProt P61160)
inactive: [1] -0.02 | volasertib -0.026 | [2] -0.011 | epoxomicin 0.017 | [3] -0.008 | [4] 0.019 | [5] -0.037 | rosiglitazone 0.009 | [6] 0.018 | [7] -0.028

ABCC5 (UniProt O15440)
inactive: [1] -0.075 | volasertib 0.027 | [2] 0.023 | epoxomicin -0.028 | [4] -0.031 | [5] -0.069 | [6] 0.028 | [7] 0.075

ACSL1 (UniProt P33121)
inactive: [1] -0.09 | volasertib -0.183 | [2] 0.012 | epoxomicin 0.018 | [4] -0.031 | [5] 0 | [6] -0.064
active: [7] -0.393

ADAMTS13 (UniProt Q76LX8)
inactive: [1] -0.002 | volasertib 0.049 | epoxomicin -0.327 | [6] 0.187

AARS2 (UniProt Q5JTZ9)
active: [7] -0.312
inactive: [1] 0.001 | volasertib -0.199 | [2] 0.023 | epoxomicin 0.023 | [4] -0.05 | [5] 0.031 | [6] -0.062

ABHD17A isoform 2 (UniProt Q96GS6)
inactive: [1] -0.072 | volasertib -0.172 | [2] -0.084 | epoxomicin -0.057 | [4] -0.17 | [5] -0.067 | [6] -0.015
active: [7] -0.377

AAK1 (UniProt Q2M2I8)
inactive: [1] 0.078 | volasertib 0.121 | [2] -0.013 | epoxomicin 0.031 | [4] -0.141 | [5] 0.087 | [6] -0.108 | [7] 0.27

ACOX3 (UniProt O15254)
inactive: [1] -0.346 | volasertib 0.028 | [2] -0.069 | epoxomicin -0.113 | [5] -0.129

ACAD9 (UniProt Q9H845)
inactive: [1] 0.03 | volasertib 0.024 | [2] -0.039 | epoxomicin 0.015 | [4] 0.014 | [5] 0.022 | [6] -0.032 | [7] -0.002

ACYP2 (UniProt P14621)
inactive: [1] -0.115 | volasertib 0.153 | [2] -0.027 | [3] 0.135 | [5] -0.075

AARSD1 (UniProt Q9BTE6)
inactive: [1] -0.042 | volasertib -0.227 | [2] -0.121 | [6] 0.283

ABCB6 (UniProt Q9NP58)
inactive: [1] -0.131 | volasertib -0.051 | [2] 0.001 | epoxomicin -0.009 | [4] -0.019 | [5] 0.061 | [6] -0.053 | [7] -0.123

ABL1 isoform 2 (UniProt P00519)
inactive: [1] 0.037 | volasertib -0.173 | epoxomicin 0.003 | [3] 0.012 | [4] 0.073 | [5] 0.066 | rosiglitazone 0.041 | [6] 0.064 | [7] -0.035

ACAP2 (UniProt Q15057)
inactive: [1] -0.034 | volasertib -0.192 | [2] 0.066 | epoxomicin -0.002 | [4] -0.015 | [5] 0.065 | [6] -0.004 | [7] 0.063
